The nature of data set [1]: Pot life test of chain extenders in polyurethane-urea formulation. Particulars: for T-5000 pot-life time: 50° C., time to relative viscosity of 5000 units. How it is done: A series of polyurethane-urea elastomers utilizing various chain extenders was prepared and evaluated in a pot life test system for the purpose of determining the reactivity of the chain extenders in standard urethane formulations relative to one another. The polyurethane-urea elastomers were formulated by reacting a prepolymer of poly(1,4-oxytetramethylene)glycol end-capped with 2,4-toluene diisocyanate, the prepolymer having an NCO content generally from 5-7%, with the test candidate chain extender aromatic diamine and a diol. The nominal stoichiometric equivalent ratio of isocyanate to diamine chain extender to diol for each sample is 2:1:1.
The test system for measuring pot life comprised a heated test chamber for holding 7 grams of test sample at a constant temperature (50° C.) and was equipped with a vertical perforated piston. This piston moves up and down through the test sample in timed relationship. (The temperature rise due to the exothermic reaction is discounted.) The force necessary to move the piston through the polymer sample is measured in arbitrary units, and the relationship of the force is plotted as a function of time. The force-pot life relationship of the urethane system during cure then is correlated to known force-viscosity relationships for the urethane-urea systems.
The coefficients apply to the equation:
log (viscosity)=I+A(time)+B(time)^2 +C(time)^3.
The coefficient of the first power term ("A") is a "quasi" reaction rate constant measuring initial reactivity. Smaller values in the quasi rate constant (A) indicate longer and desirable pot lives. The value T-5000 is the time in which the reaction product has a relative viscosity of 5000 units. Even though the value is an arbitrary value, that value is relevant for use in determining the performance of the test candidate in a RIM process or cast elastomers process. For injection molding of modest size parts, T-5000 may be about 2.5 minutes; whereas, the molding of large or intricate parts may require a T-5000 of greater than 5 minutes, e.g., 10 to 40 minutes for hand casting.

A short description of data set [2]: Physical properties of cast polyurethane elastomers (ADIPRENE 167) made with the chain extender. The following applies: for Ratio 300/100 tensile / tear resistance / 100% tensile / 200% tensile / 300% tensile / break tensile / Shore A Hardness / Shore D Hardness / % elongation: cast, NCO index .95 (3tB26TDA) or 1.04-1.05; for tear resistance: ASTM D624 (Die C); for 100% tensile / 200% tensile / 300% tensile / break tensile: ASTM D1708; for Shore A Hardness / Shore D Hardness: ASTM D2240; for % elongation: at break.

Data set [3] in a line: Physical properties of RIM (reaction injection molded) elastomers made with the chain extender. The following applies: Table 5, VORANOL 5815, 22 pph.

These results are taken from patent publication US4745223A, “Mono-tertiary-alkylated toluenediamine and derivatives” (Air Products and Chemicals, Inc., priority 1985, dated 1988).

Values joined by “and” are separate entries in the source; they are usually repeats but may differ in a detail not shown here. Equal values may be shown once.

With “3-Cyclopentenyl-2,6-toluenediamine [3Cp26TDA]”, the T-5000 pot-life time in data set [1] is on record as 3.52 min; in data set [1] (listed as 3-cyclopentenyl-2,6-TDA) it was 3.5 min.
`Cc1c(N)c(C(C)C)cc(C(C)C)c1N` [35DiP26TDA, 3,5-Diisopropyl-2,6-toluenediamine] gave a T-5000 pot-life time in data set [1] of 1.63 min.
On to `CCc1cc(C)c(N)c(CC)c1N` [35DE24TDA, 3,5-Diethyl-2,4-toluenediamine], for which the T-5000 pot-life time in data set [1] is 2.03 min.
Take `Cc1cc(N)c(N)c(C(C)(C)C)c1` [3tB34TDA, 5-tertiaryButyl-3,4-toluenediamine]: the T-5000 pot-life time amounted to 7.24 min in data set [1] and 7.2 min in data set [1] (listed as 5-tertiarybutyl-3,4-TDA).
On to `Cc1c(N)ccc(C2(C)CCCC2)c1N` [3tMCp26TDA, 3-tertiaryMethylcyclopentyl-2,6-toluenediamine], for which the T-5000 pot-life time in data set [1] was 12.2 min.
`CCC(C)(C)c1ccc(N)c(C)c1N` [3tA26TDA, 3-tertiaryAmyl-2,6-toluenediamine]: in data set [1], the T-5000 pot-life time is 16.7 min.
Consider `Cc1c(N)ccc(C(C)(C)C)c1N` [3tB26TDA, 3-tert-butyl-2,6-toluenediamine], for which, in data set [1], the T-5000 pot-life time was 17.8 min. In data set [2], the “Ratio 300/100 tensile” value is 2.26, the tear resistance is 660 pli, the 100% tensile was 1520 psi and the 200% tensile is reported as 2380 psi. In data set [2], the 300% tensile came out at 3440 psi, the break tensile worked out at 5490 psi, the “Shore A Hardness” value is reported as 94 and the “Shore D Hardness” value was determined as 44. The “% elongation” value in data set [2] came out at 480%. In data set [3] (NCO index 1.04-1.06), the 100% tensile turned out to be 1720 psi, the 200% tensile was 2180 psi, the 300% tensile turned out to be 2760 psi and the “% elongation” value worked out at 340%. Besides, in data set [3] (NCO index 1.04-1.06), the “Shore A Hardness” value was determined as 97, the “Shore D Hardness” value turned out to be 60, the break tensile was found to be 2920 psi and the flexural modulus was 30300 psi. In data set [3] (NCO index 1.04-1.06), the maximum stress is reported as 1600 psi; the “sag (125° C., 1 hr)” value is listed as 2.11 in; the tear resistance is listed as 650 pli; the yield tensile is 1910 psi. Also, in data set [3] (NCO index .93-.96), the 100% tensile is on record as 1420 psi, the 200% tensile is 1750 psi, the 300% tensile stood at 2130 psi and the “% elongation” value amounted to 410%. In addition, in data set [3] (NCO index .93-.96), the “Shore A Hardness” value is listed as 97, the “Shore D Hardness” value came to 58, the break tensile amounted to 2560 psi and the flexural modulus is 23600 psi. Further, in data set [3] (NCO index .93-.96), the maximum stress came out at 1160 psi; the “sag (125° C., 1 hr)” value worked out at 2.68 in; the tear resistance is given as 600 pli; the yield tensile is listed as 1650 psi.
For the molecule `Cc1cc(C(C)C)c(N)cc1N` [5iP24TDA, 5-isoPropyl-2,4-toluenediamine], the T-5000 pot-life time entry in data set [1] is listed as “.54 min”.
With `Cc1cc(C(C)(C)C)c(N)cc1N` [5tB24TDA, 5-tert-butyl-2,4-toluenediamine], the T-5000 pot-life time in data set [1] is 2.2 min and 2.24 min. Besides, the “suitability for preparing cast elastomers” value in data set [2] (ADIPRENE 167) is “too reactive”. Further, in data set [3] (NCO index 1.04-1.06), the 100% tensile was 1570 psi, the 200% tensile turned out to be 2000 psi, the 300% tensile is on record as 2540 psi and the “% elongation” value turned out to be 490%. In data set [3] (NCO index 1.04-1.06), the “Shore A Hardness” value worked out at 97, the “Shore D Hardness” value is 60, the break tensile was determined as 3630 psi and the flexural modulus is given as 26900 psi. Further, in data set [3] (NCO index 1.04-1.06), the maximum stress amounted to 1370 psi; the “sag (125° C., 1 hr)” value is 1.02 in; the tear resistance is reported as 660 pli; the yield tensile came to 1720 psi. Moreover, in data set [3] (NCO index .93-.96), the 100% tensile came out at 1320 psi, the 200% tensile is reported as 1650 psi, the 300% tensile came to 2080 psi and the “% elongation” value is listed as 540%. Also, in data set [3] (NCO index .93-.96), the “Shore A Hardness” value worked out at 97, the “Shore D Hardness” value was determined as 59, the break tensile is 3150 psi and the flexural modulus came to 22200 psi. For the same molecule, in data set [3] (NCO index .93-.96), the maximum stress is on record as 1100 psi; the “sag (125° C., 1 hr)” value came out at 1.46 in; the tear resistance came out at 590 pli; the yield tensile amounted to 1520 psi.
With chlorotoluenediamine [Cl-TDA], in data set [2], the “Ratio 300/100 tensile” value is 2.16, the tear resistance was 530 pli, the 100% tensile is recorded as 1360 psi and the 200% tensile was determined as 2080 psi. Further, in data set [2], the 300% tensile is 2940 psi, the break tensile is 3050 psi, the “Shore A Hardness” value turned out to be 90 and the “Shore D Hardness” value was found to be 39. Besides, the “% elongation” value in data set [2] is 320%.
For `Cc1c(N)ccc(C(C)C)c1N` [3iP26TDA, 3-isoPropyl-2,6-toluendiamine], the T-5000 pot-life time stood at 2.68 min in data set [1] and 2.47 min in data set [1] (listed as 3-isopropyl-2,6-TDA). For the same molecule, the “potlife increase over 3-5-diisopropyl-2,6-TDA” value in data set [1] (relative to 3-5-diisopropyl-2,6-TDA) was “about 50%”.
Take `Cc1c(N)cc(C(C)(C)C)cc1N` [4tB26TDA, 4-tertiaryButyl-2,6-toluenediamine]: the T-5000 pot-life time entry is listed as “.54 min” in data set [1] and 0.5 min in data set [1] (listed as 4-tertiarybutyl-2,6-toluenediamine).
As for `Cc1cc(C(C)(C)C)c(N)c(C)c1N` [5tB24DAmX, 5-tertiaryButyl-2,4-diaminometaxylene], the T-5000 pot-life time in data set [1] is 2.6 min and 2.64 min.
On the same count and under the same terms, to `Cc1cc(C(C)C)c(N)c(C(C)C)c1N` [35DiP24TDA, 3.5-Diisopropyl-2,4-toluenediamine] belongs 2.42 min.
`Cc1c(N)c(C(C)(C)C)cc(C(C)(C)C)c1N` [35DtB26TDA, 3,5-Ditertiarybutyl-2,6-toluenediamine] yielded a T-5000 pot-life time in data set [1] of 11.3 min. Moreover, in data set [2], the “Ratio 300/100 tensile” value was 2.32, the tear resistance was 720 pli, the 100% tensile is 1410 psi and the 200% tensile was 2310 psi. In addition, in data set [2], the 300% tensile came out at 3270 psi, the break tensile is on record as 6540 psi, the “Shore A Hardness” value came out at 93 and the “Shore D Hardness” value amounted to 43. Also, in data set [2], the “% elongation” value came to 620%.
As for `CCc1cc(CC)c(N)c(C)c1N` [35DE26TDA, 3,5-Diethyl-2,6-toluenediamine], the T-5000 pot-life time in data set [1] worked out at 1.13 min.
